Data source: PubChem BioAssay AID1259308 (NCATS, 2017)

- Purpose: 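Genes whose loss raises luciferase production in HEK293 cells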 (primary screen)
- System: human HEK293 embryonic kidney cells stably expressing firefly luciferase (HEK-CMV-Luc2-Hygro)
- Reagents: single siRNA against human genes, 0.8 pmol siRNA per well
- Timing: 72 h
- Read-out: 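Luciferase light (ONE-Glo) measured on one replicate plate set and viability (CellTiter-Glo) on the other, scaled to a negative control siRNA, with robust z-scores and luciferase per cell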
- Reading the numbers: total luciferase, z-score and total luciferase, % of control: higher = more reporter protein produced; luciferase per cell, z-score: higher = more reporter output per viable cell; viable cells, % of control: higher = more viable cells
- Call rule: 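Active when the median/MAD z-score for overall luciferase is greater than 3; a gene was taken forward for validation with new siRNAs if at least two of its three siRNAs passed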
- Calls: active = raised luciferase; inactive = no rise
The deposit covers about 59,000 reagents; below is a part drawn at random. Over the whole deposit, about 1,510 (2.6%) are marked active. 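Calls use total luciferase alone and ignore viability, so some active siRNAs may act by altering cell number.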 The numbers tell different reagents against one gene apart.

target | reagent no. | total luciferase, z-score | total luciferase, % of control | luciferase per cell, z-score | viable cells, % of control | outcome
CAMK1D | 1 | 2.61 | 134 | 3.8 | 55.1 | inactive
CAMK1D | 2 | -0.165 | 78.6 | -0.499 | 100 | inactive
CAMK1D | 3 | -1.11 | 59.8 | -1.56 | 101 | inactive
PHKA1P1 | 1 | -2.24 | 37.4 | -1.37 | 59.9 | inactive
PHKA1P1 | 2 | 1.35 | 109 | 1.97 | 72.3 | inactive
PHKA1P1 | 3 | -0.00951 | 81.7 | 0.0389 | 90.4 | inactive
NGDN | 1 | 0.498 | 91.8 | 0.927 | 80.4 | inactive
NGDN | 2 | -0.853 | 64.9 | -0.922 | 92.5 | inactive
NGDN | 3 | -1.68 | 48.4 | -1.38 | 77.7 | inactive
HEATR1 | 1 | 1.34 | 109 | 1.91 | 73.3 | inactive
HEATR1 | 2 | -0.923 | 63.5 | -0.487 | 80.7 | inactive
HEATR1 | 3 | -0.451 | 72.9 | 0.029 | 80.9 | inactive
KCND3 | 1 | 0.588 | 93.6 | 0.259 | 97.7 | inactive
KCND3 | 2 | -0.891 | 64.2 | -0.13 | 74.2 | inactive
KCND3 | 3 | -0.415 | 73.6 | -0.555 | 95.2 | inactive
TIMM22 | 1 | 1.77 | 117 | 2.63 | 65.4 | inactive
TIMM22 | 2 | 0.928 | 100 | 0.186 | 107 | inactive
TIMM22 | 3 | 0.27 | 87.3 | 0.509 | 85.3 | inactive
CD151 | 1 | 1.19 | 106 | 0.989 | 90.9 | inactive
CD151 | 2 | 0.314 | 88.1 | -0.715 | 119 | inactive
CD151 | 3 | -1.72 | 47.7 | -2.33 | 98.3 | inactive
OR11H4 | 1 | 1.04 | 103 | 0.53 | 99.8 | inactive
OR11H4 | 2 | -0.75 | 67 | -1.13 | 101 | inactive
OR11H4 | 3 | 2.41 | 130 | 1.78 | 90.8 | inactive
PCSK7 | 1 | 0.281 | 87.5 | 0.509 | 85.5 | inactive
PCSK7 | 2 | 0.2 | 85.9 | 0.0364 | 95 | inactive
PCSK7 | 3 | -0.424 | 73.5 | -0.872 | 103 | inactive
CFAP92 | 1 | -1.42 | 53.7 | -2.12 | 105 | inactive
CFAP92 | 2 | 0.136 | 84.6 | -0.0342 | 95.4 | inactive
CFAP92 | 3 | -1.31 | 55.8 | -1.2 | 85.6 | inactive
IGF1R | 1 | 0.308 | 88 | 0.249 | 92.1 | inactive
IGF1R | 2 | -1.02 | 61.6 | -0.253 | 73.6 | inactive
IGF1R | 3 | 1.16 | 105 | 1.22 | 85.1 | inactive
CIZ1 | 1 | -0.0262 | 81.4 | 1.21 | 66.1 | inactive
CIZ1 | 2 | 0.634 | 94.5 | 1.81 | 65.6 | inactive
CIZ1 | 3 | -0.301 | 75.9 | 0.668 | 71.1 | inactive
ASZ1 | 1 | 1.97 | 121 | 0.778 | 110 | inactive
ASZ1 | 2 | 0.171 | 85.3 | -0.275 | 102 | inactive
ASZ1 | 3 | 0.3 | 87.9 | -0.409 | 109 | inactive

Not a retest: entries from further up.
target | reagent no. | total luciferase, z-score | total luciferase, % of control | luciferase per cell, z-score | viable cells, % of control | outcome
CFAP92 | 1 | -1.42 | 53.7 | -2.12 | 105 | inactive
CFAP92 | 2 | 0.136 | 84.6 | -0.0342 | 95.4 | inactive
CFAP92 | 3 | -1.31 | 55.8 | -1.2 | 85.6 | inactive
IGF1R | 1 | 0.308 | 88 | 0.249 | 92.1 | inactive
IGF1R | 2 | -1.02 | 61.6 | -0.253 | 73.6 | inactive
